Data source: PubChem BioAssay AID1159578 (Peter MacCallum Cancer Centre, 2015)
Assay: 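Genome-wide hunt for genes controlling movement of lymphatic endothelial cells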 (primary screen). System: human lymphatic endothelial cells. Reagents: siRNA pool against human genes, 40 nM. Timing: 48 h after transfection. Measured: 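High-content imaging of dye-stained cells in a scratch assay measures filled wound area and nuclei per well; duplicate means given as ratio to mock and robust z-score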. Scale: migration robust z-score: higher = faster migration into the scratch; nuclei per well: higher = more cells in the well. Call rule: 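Migration changed when robust z exceeds 2 or falls below -2 and mean nuclei number is at least 3300; otherwise not called changed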. Calls: active = migration changed; inactive = no migration change, or too few cells.
Here is an unselected part of about 18,000 reagents. About 1,030 of all reagents (5.7%) were called active. 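Inactive calls also include pools with fewer than 3300 nuclei, whose migration was not assessed.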 Raw values vary from plate to plate and are shown uncorrected. Entries without a mark were called inactive. Not all columns of the deposit are shown.

LEPR (leptin receptor): migration robust z-score = 1.04; nuclei per well, duplicate mean = 5599
WDTC1 (WD and tetratricopeptide repeats 1): migration robust z-score = -0.16; nuclei per well, duplicate mean = 6890
ASAH2 (N-acylsphingosine amidohydrolase 2): migration robust z-score = -0.57; nuclei per well, duplicate mean = 5102
KRTAP19-5 (keratin associated protein 19-5): migration robust z-score = 0; nuclei per well, duplicate mean = 5124
CENPF (centromere protein F): migration robust z-score = -1.1; nuclei per well, duplicate mean = 5720
CEACAM19 (CEA cell adhesion molecule 19): migration robust z-score = 0.34; nuclei per well, duplicate mean = 5930
TTR (transthyretin): migration robust z-score = -1.45; nuclei per well, duplicate mean = 4654

Laid out differently: entries from further up.
{"target gene": "CEACAM19 (CEA cell adhesion molecule 19)", "migration robust z-score": 0.34, "nuclei per well, duplicate mean": 5930}
{"target gene": "TTR (transthyretin)", "migration robust z-score": -1.45, "nuclei per well, duplicate mean": 4654}

Further results follow.
SLC25A17: migration robust z-score = 3.66 (active); nuclei per well, duplicate mean = 5924
SNRPD3 (small nuclear ribonucleoprotein D3 polypeptide): migration robust z-score = -1.68; nuclei per well, duplicate mean = 5496
MXI1 (MAX interactor 1, dimerization protein): migration robust z-score = 0.83; nuclei per well, duplicate mean = 6254
WDR82 (WD repeat domain 82): migration robust z-score = 1.63; nuclei per well, duplicate mean = 7751
TRIM28 (tripartite motif containing 28): migration robust z-score = -1.32; nuclei per well, duplicate mean = 5444
CRK (CRK proto-oncogene, adaptor protein): migration robust z-score = -0.96; nuclei per well, duplicate mean = 5816
RCSD1 (RCSD domain containing 1): migration robust z-score = -0.12; nuclei per well, duplicate mean = 5643
FHIP2A (FHF complex subunit HOOK interacting protein 2A): migration robust z-score = 0.45; nuclei per well, duplicate mean = 6104
KRTAP5-11 (keratin associated protein 5-11): migration robust z-score = -0.24; nuclei per well, duplicate mean = 5548
MANBA (mannosidase beta): migration robust z-score = 0.5; nuclei per well, duplicate mean = 5584
SLC25A32: migration robust z-score = 0.44; nuclei per well, duplicate mean = 5959
TCTA (T cell leukemia translocation altered): migration robust z-score = 0.47; nuclei per well, duplicate mean = 5362
USP17L9P: migration robust z-score = 0.96; nuclei per well, duplicate mean = 6210
HES2 (hes family bHLH transcription factor 2): migration robust z-score = 0.44; nuclei per well, duplicate mean = 5554
